The record followed here is the supplement of paper PMC12819154, “High-throughput peptide-centric local stability assay extends protein–ligand identification to membrane proteins, tissues and bacteria” (Nature Structural & Molecular Biology, 2025).

Chains of the proteins cited; added tags and fusions are not shown. Lines headed by an entry give the natural chain unless they say otherwise; changes in a name come on top.
UniProt Q9Y5J7: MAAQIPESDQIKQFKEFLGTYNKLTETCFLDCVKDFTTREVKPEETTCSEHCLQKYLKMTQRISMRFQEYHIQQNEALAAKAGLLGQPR
UniProt Q9Y5B8, whole entry: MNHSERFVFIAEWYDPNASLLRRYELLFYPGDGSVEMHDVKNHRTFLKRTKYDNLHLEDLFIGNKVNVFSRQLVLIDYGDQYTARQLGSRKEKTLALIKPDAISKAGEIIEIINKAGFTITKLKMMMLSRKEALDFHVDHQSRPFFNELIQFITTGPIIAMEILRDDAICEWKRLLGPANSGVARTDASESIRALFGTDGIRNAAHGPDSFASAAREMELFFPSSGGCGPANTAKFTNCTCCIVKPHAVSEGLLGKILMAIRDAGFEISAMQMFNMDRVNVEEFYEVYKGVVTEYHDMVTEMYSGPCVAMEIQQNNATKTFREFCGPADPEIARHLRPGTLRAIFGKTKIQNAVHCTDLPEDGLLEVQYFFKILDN
UniProt Q9Y575: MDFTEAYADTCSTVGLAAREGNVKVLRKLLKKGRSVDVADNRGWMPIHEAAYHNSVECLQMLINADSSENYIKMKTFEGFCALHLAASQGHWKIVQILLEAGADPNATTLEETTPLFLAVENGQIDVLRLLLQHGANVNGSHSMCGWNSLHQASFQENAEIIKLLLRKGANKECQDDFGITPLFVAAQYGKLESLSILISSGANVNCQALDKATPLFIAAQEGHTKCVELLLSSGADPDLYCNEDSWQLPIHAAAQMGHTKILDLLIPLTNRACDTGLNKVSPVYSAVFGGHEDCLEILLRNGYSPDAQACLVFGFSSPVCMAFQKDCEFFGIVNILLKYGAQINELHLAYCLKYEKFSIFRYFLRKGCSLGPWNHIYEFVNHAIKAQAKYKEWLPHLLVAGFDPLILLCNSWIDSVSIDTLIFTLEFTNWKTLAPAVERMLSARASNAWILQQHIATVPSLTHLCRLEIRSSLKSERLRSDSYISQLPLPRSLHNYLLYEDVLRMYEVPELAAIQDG
UniProt Q9Y5K5, whole entry: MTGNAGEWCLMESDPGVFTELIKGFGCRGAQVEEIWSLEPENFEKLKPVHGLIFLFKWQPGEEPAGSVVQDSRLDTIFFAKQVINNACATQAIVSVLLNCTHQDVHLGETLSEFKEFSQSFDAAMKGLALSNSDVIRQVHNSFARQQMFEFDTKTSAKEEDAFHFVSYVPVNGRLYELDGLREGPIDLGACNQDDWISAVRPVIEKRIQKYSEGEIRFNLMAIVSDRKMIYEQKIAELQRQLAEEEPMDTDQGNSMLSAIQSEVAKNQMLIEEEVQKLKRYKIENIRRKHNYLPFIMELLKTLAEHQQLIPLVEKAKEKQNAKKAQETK
UniProt Q9Y605: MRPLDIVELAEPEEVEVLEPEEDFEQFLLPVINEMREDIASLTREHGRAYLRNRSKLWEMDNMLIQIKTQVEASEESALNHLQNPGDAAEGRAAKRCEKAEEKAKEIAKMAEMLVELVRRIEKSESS
UniProt Q9Y3B8: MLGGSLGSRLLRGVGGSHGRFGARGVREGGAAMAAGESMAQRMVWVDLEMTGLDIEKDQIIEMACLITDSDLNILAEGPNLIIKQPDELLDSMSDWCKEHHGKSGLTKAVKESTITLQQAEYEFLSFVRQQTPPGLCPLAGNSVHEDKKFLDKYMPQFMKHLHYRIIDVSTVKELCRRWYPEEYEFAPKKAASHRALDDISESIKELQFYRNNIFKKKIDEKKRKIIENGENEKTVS
UniProt Q9Y2U9: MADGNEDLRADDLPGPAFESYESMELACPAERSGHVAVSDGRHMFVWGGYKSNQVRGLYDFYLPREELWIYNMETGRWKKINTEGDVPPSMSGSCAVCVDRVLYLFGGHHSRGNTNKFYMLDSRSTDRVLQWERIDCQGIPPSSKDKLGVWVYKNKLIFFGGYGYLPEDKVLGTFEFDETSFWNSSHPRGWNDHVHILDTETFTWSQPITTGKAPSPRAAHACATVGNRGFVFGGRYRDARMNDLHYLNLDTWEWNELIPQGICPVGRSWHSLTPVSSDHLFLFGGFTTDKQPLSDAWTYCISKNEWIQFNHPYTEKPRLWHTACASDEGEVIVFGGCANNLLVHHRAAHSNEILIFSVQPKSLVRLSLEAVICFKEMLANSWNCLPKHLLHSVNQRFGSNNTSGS
UniProt Q9Y4Z0: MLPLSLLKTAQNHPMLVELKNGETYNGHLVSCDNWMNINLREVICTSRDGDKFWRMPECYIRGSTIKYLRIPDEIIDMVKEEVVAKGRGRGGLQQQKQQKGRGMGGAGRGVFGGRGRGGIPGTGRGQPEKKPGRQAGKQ
UniProt Q9Y5L0: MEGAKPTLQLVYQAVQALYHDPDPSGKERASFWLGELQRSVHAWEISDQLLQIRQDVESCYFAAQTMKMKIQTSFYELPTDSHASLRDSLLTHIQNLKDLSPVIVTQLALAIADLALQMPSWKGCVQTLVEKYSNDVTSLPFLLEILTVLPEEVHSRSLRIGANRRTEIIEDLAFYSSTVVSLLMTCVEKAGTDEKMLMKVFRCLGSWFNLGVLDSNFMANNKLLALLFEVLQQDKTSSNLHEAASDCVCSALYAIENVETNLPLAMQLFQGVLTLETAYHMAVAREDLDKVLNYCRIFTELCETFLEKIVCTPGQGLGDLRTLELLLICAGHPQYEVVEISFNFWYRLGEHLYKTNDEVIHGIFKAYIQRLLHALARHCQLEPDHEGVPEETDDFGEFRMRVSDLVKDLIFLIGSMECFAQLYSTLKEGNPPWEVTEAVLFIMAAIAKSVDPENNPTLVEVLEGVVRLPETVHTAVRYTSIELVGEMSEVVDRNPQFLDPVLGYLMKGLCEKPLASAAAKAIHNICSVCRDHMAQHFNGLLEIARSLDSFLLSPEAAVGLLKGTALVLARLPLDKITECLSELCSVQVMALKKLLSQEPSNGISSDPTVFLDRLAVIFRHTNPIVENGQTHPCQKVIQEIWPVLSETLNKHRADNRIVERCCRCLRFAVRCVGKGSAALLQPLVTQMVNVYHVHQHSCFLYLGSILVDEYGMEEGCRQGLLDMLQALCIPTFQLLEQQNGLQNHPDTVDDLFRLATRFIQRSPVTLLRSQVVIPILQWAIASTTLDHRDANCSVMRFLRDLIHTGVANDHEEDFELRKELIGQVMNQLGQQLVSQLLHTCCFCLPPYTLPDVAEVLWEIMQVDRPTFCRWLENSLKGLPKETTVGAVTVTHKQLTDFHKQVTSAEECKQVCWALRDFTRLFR
UniProt Q9Y343: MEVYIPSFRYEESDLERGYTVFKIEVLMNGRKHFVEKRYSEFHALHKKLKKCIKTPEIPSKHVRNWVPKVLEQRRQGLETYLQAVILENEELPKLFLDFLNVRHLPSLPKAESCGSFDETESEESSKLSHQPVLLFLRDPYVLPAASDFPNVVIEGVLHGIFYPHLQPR
UniProt Q9Y2F5: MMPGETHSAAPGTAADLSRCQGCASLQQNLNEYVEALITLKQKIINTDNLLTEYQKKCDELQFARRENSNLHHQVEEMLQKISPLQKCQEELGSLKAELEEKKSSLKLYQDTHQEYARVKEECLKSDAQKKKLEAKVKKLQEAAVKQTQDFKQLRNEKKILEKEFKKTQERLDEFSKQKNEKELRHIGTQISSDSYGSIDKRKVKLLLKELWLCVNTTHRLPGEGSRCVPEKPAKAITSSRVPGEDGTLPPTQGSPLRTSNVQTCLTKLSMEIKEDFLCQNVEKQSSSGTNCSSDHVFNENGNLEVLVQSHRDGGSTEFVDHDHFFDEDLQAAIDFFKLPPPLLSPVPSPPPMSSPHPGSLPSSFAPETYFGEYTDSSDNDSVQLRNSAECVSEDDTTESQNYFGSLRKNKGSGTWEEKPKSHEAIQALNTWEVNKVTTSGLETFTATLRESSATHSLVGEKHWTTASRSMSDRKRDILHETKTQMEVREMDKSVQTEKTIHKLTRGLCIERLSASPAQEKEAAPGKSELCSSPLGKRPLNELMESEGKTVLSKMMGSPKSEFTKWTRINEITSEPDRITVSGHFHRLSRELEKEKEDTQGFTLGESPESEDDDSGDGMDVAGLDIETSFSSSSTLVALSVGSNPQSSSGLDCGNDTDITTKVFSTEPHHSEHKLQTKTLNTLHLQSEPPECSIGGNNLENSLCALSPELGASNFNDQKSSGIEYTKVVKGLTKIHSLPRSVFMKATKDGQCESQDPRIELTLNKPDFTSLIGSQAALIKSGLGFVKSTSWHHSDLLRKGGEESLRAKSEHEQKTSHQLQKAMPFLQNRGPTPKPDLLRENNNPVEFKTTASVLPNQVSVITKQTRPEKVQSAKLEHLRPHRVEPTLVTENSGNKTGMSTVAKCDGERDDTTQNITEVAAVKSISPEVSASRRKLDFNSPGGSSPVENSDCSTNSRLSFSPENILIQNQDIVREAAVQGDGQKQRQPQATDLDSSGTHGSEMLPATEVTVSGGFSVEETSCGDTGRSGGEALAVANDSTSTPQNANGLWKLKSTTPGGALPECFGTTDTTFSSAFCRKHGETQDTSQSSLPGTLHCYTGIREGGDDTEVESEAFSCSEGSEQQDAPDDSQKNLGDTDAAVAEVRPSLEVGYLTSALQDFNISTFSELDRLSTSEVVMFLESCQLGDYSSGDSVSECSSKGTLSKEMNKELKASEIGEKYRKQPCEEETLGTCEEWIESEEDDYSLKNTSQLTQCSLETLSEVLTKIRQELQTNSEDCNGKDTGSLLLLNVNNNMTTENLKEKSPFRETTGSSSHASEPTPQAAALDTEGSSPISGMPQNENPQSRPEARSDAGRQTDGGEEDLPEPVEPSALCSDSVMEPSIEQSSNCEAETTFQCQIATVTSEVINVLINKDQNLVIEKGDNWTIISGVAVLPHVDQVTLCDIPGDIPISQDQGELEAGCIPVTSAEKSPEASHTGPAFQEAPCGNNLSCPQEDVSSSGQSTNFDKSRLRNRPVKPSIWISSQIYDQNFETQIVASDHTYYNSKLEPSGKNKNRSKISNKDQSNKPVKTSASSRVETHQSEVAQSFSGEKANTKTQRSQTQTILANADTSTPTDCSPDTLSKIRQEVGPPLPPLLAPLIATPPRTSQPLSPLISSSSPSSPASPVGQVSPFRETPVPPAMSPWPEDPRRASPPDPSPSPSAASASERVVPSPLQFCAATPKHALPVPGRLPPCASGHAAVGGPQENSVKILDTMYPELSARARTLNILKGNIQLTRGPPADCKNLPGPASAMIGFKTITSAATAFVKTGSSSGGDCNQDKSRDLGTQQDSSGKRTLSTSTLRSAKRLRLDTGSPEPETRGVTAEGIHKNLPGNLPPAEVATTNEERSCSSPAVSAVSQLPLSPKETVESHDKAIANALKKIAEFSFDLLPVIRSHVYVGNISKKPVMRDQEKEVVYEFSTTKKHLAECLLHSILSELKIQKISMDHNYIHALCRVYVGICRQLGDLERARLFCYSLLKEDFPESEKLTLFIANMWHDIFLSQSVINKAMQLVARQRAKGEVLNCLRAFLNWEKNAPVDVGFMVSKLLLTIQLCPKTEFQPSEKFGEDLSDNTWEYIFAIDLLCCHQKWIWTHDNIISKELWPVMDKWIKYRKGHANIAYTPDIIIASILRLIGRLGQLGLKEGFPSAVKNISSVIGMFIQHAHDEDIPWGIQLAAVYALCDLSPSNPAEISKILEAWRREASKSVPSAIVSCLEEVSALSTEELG
UniProt Q9Y467: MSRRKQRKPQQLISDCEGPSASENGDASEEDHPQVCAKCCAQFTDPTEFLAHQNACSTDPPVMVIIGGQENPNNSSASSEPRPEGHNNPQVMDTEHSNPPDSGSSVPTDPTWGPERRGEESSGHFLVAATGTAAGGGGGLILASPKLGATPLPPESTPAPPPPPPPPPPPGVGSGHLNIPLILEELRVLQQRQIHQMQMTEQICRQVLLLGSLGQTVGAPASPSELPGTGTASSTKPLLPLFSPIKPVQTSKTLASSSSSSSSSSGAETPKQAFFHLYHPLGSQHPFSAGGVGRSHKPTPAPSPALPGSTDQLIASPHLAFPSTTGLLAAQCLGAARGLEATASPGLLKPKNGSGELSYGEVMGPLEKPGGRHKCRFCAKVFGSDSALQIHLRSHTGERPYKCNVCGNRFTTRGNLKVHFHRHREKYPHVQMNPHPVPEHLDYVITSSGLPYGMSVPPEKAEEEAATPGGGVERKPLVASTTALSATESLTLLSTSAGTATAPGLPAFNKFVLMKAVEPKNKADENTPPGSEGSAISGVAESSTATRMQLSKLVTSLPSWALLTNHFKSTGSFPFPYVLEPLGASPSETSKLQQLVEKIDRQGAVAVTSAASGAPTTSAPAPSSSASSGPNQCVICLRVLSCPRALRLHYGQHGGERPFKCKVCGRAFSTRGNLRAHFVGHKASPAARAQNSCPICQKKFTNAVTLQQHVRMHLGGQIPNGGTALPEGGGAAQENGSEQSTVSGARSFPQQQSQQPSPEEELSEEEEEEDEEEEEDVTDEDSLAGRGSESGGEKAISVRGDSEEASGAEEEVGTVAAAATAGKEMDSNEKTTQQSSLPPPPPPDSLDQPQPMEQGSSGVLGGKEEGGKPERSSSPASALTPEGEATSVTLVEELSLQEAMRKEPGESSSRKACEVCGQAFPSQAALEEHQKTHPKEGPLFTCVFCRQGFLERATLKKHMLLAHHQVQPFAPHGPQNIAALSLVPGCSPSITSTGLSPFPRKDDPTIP

The other results are listed elsewhere or left out. Most entries show no effect beyond the scatter of the controls.

Compound in the assay: Cc1nc(Nc2ncc(C(=O)Nc3c(C)cccc3Cl)s2)cc(N2CCN(CCO)CC2)n1 [dasatinib]
The assay is described as follows: log2 fold change of tryptic peptide abundance, ligand vs vehicle (limited proteolysis) (log2 ratio); higher = more trypsin-susceptible (destabilized). Particulars: ligand concentration: 5 uM; sample: K562 cleared lysate.
In the case of “ARFGEF2 (peptide sequence: WLCAVSMDELASPHHPR, peptide start residue: 1093) (UniProt Q9Y6D5)”, the log2 fold change was -0.183.

On to “LRRFIP2 (peptide sequence: ESLSEVEEK, peptide start residue: 370) (UniProt Q9Y608)”, for which the log2 fold change amounted to 0.111.

Regarding “TIMM9 (peptide sequence: FQEYHIQQNEALAAK, peptide start residue: 67) (UniProt Q9Y5J7)”, the log2 fold change was -0.129.

On to “USP3 (peptide sequence: NQENGPVCSLR, peptide start residue: 355) (UniProt Q9Y6I4)”, for which the log2 fold change was 0.23.

Consider “TIMM13 (peptide sequence: CIGKPGGSLDNSEQK, peptide start residue: 50) (UniProt Q9Y5L4)”, for which the log2 fold change was -0.225.

Take “UniProt Q9Y4E1 (peptide sequence: DNDPDVDLFAGTKK, peptide start residue: 854)”: the log2 fold change is 0.299.

Turning to “NME7 (peptide sequence: RYELLFYPGDGSVEMHDVK, peptide start residue: 23) (UniProt Q9Y5B8)”, the log2 fold change worked out at 0.207.

On to “ASB3 (peptide sequence: SVDVADNR, peptide start residue: 35) (UniProt Q9Y575)”, for which the log2 fold change worked out at 0.0725.

Regarding “UCHL5 (peptide sequence: FNLMAIVSDR, peptide start residue: 218) (UniProt Q9Y5K5)”, the log2 fold change is -0.311.

In the case of “KPTN (peptide sequence: GELLAATLK, peptide start residue: 39) (UniProt Q9Y664)”, the log2 fold change is 0.234.

Take “MRFAP1 (peptide sequence: CEKAEEK, peptide start residue: 97) (UniProt Q9Y605)”: the log2 fold change was 0.35.

Take “REXO2 (peptide sequence: FLDKYMPQFMK, peptide start residue: 150) (UniProt Q9Y3B8)”: the log2 fold change was found to be 0.135.

Regarding “UniProt Q9Y4B6 (peptide sequence: ELQLQEVALR, peptide start residue: 181)”, the log2 fold change was -0.274.

Regarding “HEBP2 (peptide sequence: NEPTKENE, peptide start residue: 198) (UniProt Q9Y5Z4)”, the log2 fold change is -0.202.

Turning to “SLC30A1 (peptide sequence: AENIPAVVIEIK, peptide start residue: 485) (UniProt Q9Y6M5)”, the log2 fold change worked out at 0.0671.

For the target “UniProt Q9Y320 (peptide sequence: YNCTGLNFGKVDVGR, peptide start residue: 184)”, the log2 fold change came out at 0.758.

For “SNX13 (peptide sequence: KMDTFVNPLR, peptide start residue: 699) (UniProt Q9Y5W8)”, the log2 fold change stood at 0.44.

In the case of “UFC1 (peptide sequence: CWYIHDLLK, peptide start residue: 69) (UniProt Q9Y3C8)”, the log2 fold change was -0.345.

With “KLHDC2 (peptide sequence: FYMLDSR, peptide start residue: 118) (UniProt Q9Y2U9)”, the log2 fold change came out at 0.349.

For “LSM4 (peptide sequence: IPDEIIDMVKEEVVAK, peptide start residue: 71) (UniProt Q9Y4Z0)”, the log2 fold change is -0.39.

For “NUMBL (peptide sequence: LSHAVGCAFAACLER, peptide start residue: 154) (UniProt Q9Y6R0)”, the log2 fold change is -0.095.

With “UTP18 (peptide sequence: LEEDKPAVER, peptide start residue: 80) (UniProt Q9Y5J1)”, the log2 fold change is -0.38.

For “TNPO3 (peptide sequence: DHMAQHFNGLLEIAR, peptide start residue: 532) (UniProt Q9Y5L0)”, the log2 fold change was -0.526.

Take “SNX24 (peptide sequence: IEVLMNGR, peptide start residue: 24) (UniProt Q9Y343)”: the log2 fold change is -0.188.

Turning to “SUPT16H (peptide sequence: EGIVKQDSLVINLNR, peptide start residue: 643) (UniProt Q9Y5B9)”, the log2 fold change is 0.374.

Consider “FHOD1 (peptide sequence: FLENVAAAETEK, peptide start residue: 443) (UniProt Q9Y613)”, for which the log2 fold change is -0.0563.

For “MAGED1 (peptide sequence: GPNGVYDFSQAHNAK, peptide start residue: 87) (UniProt Q9Y5V3)”, the log2 fold change is -0.157.

Turning to “TRRAP (peptide sequence: AQATAQDPVFQK, peptide start residue: 3404) (UniProt Q9Y4A5)”, the log2 fold change was 0.354.

On to “ICE1 (peptide sequence: SSGIEYTK, peptide start residue: 720) (UniProt Q9Y2F5)”, for which the log2 fold change was determined as 0.417.

For “MRPS18B (peptide sequence: ARDHGLLIYHIPQVEPR, peptide start residue: 157) (UniProt Q9Y676)”, the log2 fold change is -0.112.

In the case of “CARD8 (peptide sequence: ECPEKSSSSEEELPR, peptide start residue: 5) (UniProt Q9Y2G2)”, the log2 fold change stood at 0.433.

Turning to “MRPS7 (peptide sequence: KPVEELTEEEK, peptide start residue: 53) (UniProt Q9Y2R9)”, the log2 fold change was 0.438.

Consider “MYH15 (peptide sequence: MKYENNVIQR, peptide start residue: 1385) (UniProt Q9Y2K3)”, for which the log2 fold change was -0.628.

Turning to “KLHL20 (peptide sequence: NYLLLPQERPLMQGPR, peptide start residue: 292) (UniProt Q9Y2M5)”, the log2 fold change stood at 0.472.

In the case of “FIS1 (peptide sequence: SKYNDDIR, peptide start residue: 45) (UniProt Q9Y3D6)”, the log2 fold change was -0.124.

As for “TRPV2 (peptide sequence: LETLDGGQEDGSEADRGK, peptide start residue: 12) (UniProt Q9Y5S1)”, the log2 fold change is -0.388.

For the target “SALL2 (peptide sequence: QIHQMQMTEQICR, peptide start residue: 193) (UniProt Q9Y467)”, the log2 fold change was found to be 0.39.
